The text below walks through data of patent US10159726B2, “Peptides, combination of peptides and scaffolds for use in immunotherapeutic treatment of various cancers” (Immatics Biotechnologies GmbH, priority 2015, dated 2018).

What all share (design): species or system human
The subject of data set [1] is source genes of selected peptides. The data set can be described thus: Expression profiling of source genes by in-house RNAseq, tumor vs normal tissues (target coverage). The conditions noted are these: for Target coverage for source genes of selected peptides, GBC_CCC (N = 10): gallbladder adenocarcinoma and cholangiocarcinoma; for Target coverage for source genes of selected peptides, GBC_CCC (N = 10) / Target coverage for source genes of selected peptides, GC (N = 11) / Target coverage for source genes of selected peptides, HNSCC (N = 10) / Target coverage for source genes of selected peptides, MEL (N = 10) / Target coverage for source genes of selected peptides, NHL (N = 10) / Target coverage for source genes of selected peptides, PCA (n = 10) / Target coverage for source genes of selected peptides, UBC (N = 10) / Target coverage for source genes of selected peptides, UTC (N = 10): share of tumors with more than 1.5-fold higher expression than the highest-expressing relevant normal tissue, in-house RNAseq; for Target coverage for source genes of selected peptides, GC (N = 11): gastric cancer; for Target coverage for source genes of selected peptides, HNSCC (N = 10): head and neck small cell carcinoma; for Target coverage for source genes of selected peptides, MEL (N = 10): melanoma; for Target coverage for source genes of selected peptides, NHL (N = 10): non-Hodgkin lymphoma; for Target coverage for source genes of selected peptides, PCA (n = 10): prostate cancer and benign prostate hyperplasia; for Target coverage for source genes of selected peptides, UBC (N = 10): urinary bladder cancer; for Target coverage for source genes of selected peptides, UTC (N = 10): uterine cancer; for Target coverage, over-expression of source gene, AML: AML (N = 7); for Target coverage, over-expression of source gene, AML / Target coverage, over-expression of source gene, BRCA / Target coverage, over-expression of source gene, CLL / Target coverage, over-expression of source gene, CRC / Target coverage, over-expression of source gene, GB / Target coverage, over-expression of source gene, HCC / Target coverage, over-expression of source gene, OC / Target coverage, over-expression of source gene, OSCAR / Target coverage, over-expression of source gene, PC / Target coverage, over-expression of source gene, RCC / Target coverage, over-expression of source gene, SCLC / Target coverage, over-expression of source gene, pNSCLC: in-house RNASeq; for Target coverage, over-expression of source gene, BRCA: BRCA (N = 10); for Target coverage, over-expression of source gene, CLL: CLL (N = 10); for Target coverage, over-expression of source gene, CRC: CRC (N = 20); for Target coverage, over-expression of source gene, GB: GB (N = 24); for Target coverage, over-expression of source gene, HCC: HCC (N = 15); for Target coverage, over-expression of source gene, OC: OC (N = 12); for Target coverage, over-expression of source gene, OSCAR: OSCAR (N = 11); for Target coverage, over-expression of source gene, PC: PC (N = 26); for Target coverage, over-expression of source gene, RCC: RCC (N = 10); for Target coverage, over-expression of source gene, SCLC: SCLC (N = 10); for Target coverage, over-expression of source gene, pNSCLC: pNSCLC (N = 11).

The subject of data set [2] is HLA-A*24 molecules of primary tumors. Put plainly: Identification and relative LC-MS quantitation of HLA-A*24 tumor-associated peptides presented on tissue samples (XPRESIDENT presentation profiles). The conditions noted are these: for ENTITIES: Table 9A: selected HLA-A*24-binding tumor-associated peptides, cancer entities on which the peptide was found presented.
For data set [3], the system named is source genes of selected peptides. The data set can be described thus: Target coverage of source genes in tumor entities based on TCGA Research Network data. Conditions: over-expressed = more than 2-fold above the highest 75% percentile of normal organs; for Target coverage, over-expression category of source gene, BLCA (N = 408): Bladder urothelial carcinoma; for Target coverage, over-expression category of source gene, CHOL (N = 36): Cholangiocarcinoma; for Target coverage, over-expression category of source gene, CESC (N = 307): Cervical squamous cell carcinoma and endocervical adenocarcinoma; for Target coverage, over-expression category of source gene, HNSC (N = 521): Head and neck squamous cell carcinoma.

[4] abbreviates: over-expression = more than 1.5-fold vs highest normal tissue.
The mark [5] stands for this setting: share of tumors with more than 1.5-fold higher expression than highest relevant normal tissue.

For some of these results: Expression grades refer to the transcript from which the peptide derives; gene names, where given, were looked up from the sequence.

On to “180: peptide found in OXTR (gene looked up) (KYLQVVGMF; listed as Homo sapiens) [compound 180]”, for which, in data set [1], the “Target coverage for source genes of selected peptides, GBC_CCC (N = 10)” value is reported as “I (<19% over-expression = I)”; the “Target coverage for source genes of selected peptides, GC (N = 11)” value is given as “I (<19% over-expression = I)”; the “Target coverage for source genes of selected peptides, HNSCC (N = 10)” value is given as “I (<19% over-expression = I)”; the “Target coverage for source genes of selected peptides, MEL (N = 10)” value is “I (<19% over-expression = I)”. Also, in data set [1], the “Target coverage for source genes of selected peptides, NHL (N = 10)” value is listed as “I (<19% over-expression = I)”; the “Target coverage for source genes of selected peptides, PCA (n = 10)” value was “I (<19% over-expression = I)”; the “Target coverage for source genes of selected peptides, UBC (N = 10)” value was “I (<19% over-expression = I)”; the “Target coverage for source genes of selected peptides, UTC (N = 10)” value was “I (<19% over-expression = I)”. For the same substance, in data set [2], the ENTITIES entry is given as “NSCLC, GB”. Also, in data set [3], the “Target coverage, over-expression category of source gene, BLCA (N = 408)” value is listed as “C (>=5% of tumors above the cutoff, but <20%)” and the “Target coverage, over-expression category of source gene, CHOL (N = 36)” value is recorded as “A (>=50% of tumors above the cutoff)”. The “Target coverage, over-expression category of source gene, KIRP (N = 291)” value in data set [3] (Kidney renal papillary cell carcinoma) is on record as “C (>=5% of tumors above the cutoff, but <20%)”. Moreover, the “Target coverage, over-expression category of source gene, LGG (N = 534)” value in data set [3] (Lower grade glioma) is given as “B (>=20% of tumors above the cutoff, but <50%)”. For the same substance, the “Target coverage, over-expression category of source gene, MESO (N = 87)” value in data set [3] (Mesothelioma) is “A (>=50% of tumors above the cutoff)”. Also, in data set [3] (Pheochromocytoma and paraganglioma), the “Target coverage, over-expression category of source gene, PCPG (N = 184)” value is listed as “C (>=5% of tumors above the cutoff, but <20%)”.
Regarding “172: peptide found in MMP10 (gene looked up) (VFIFKGNEF; listed as Homo sapiens) [compound 172]”, the “Target coverage, over-expression of source gene, AML” value in data set [1] (over-expression = more than 1.5-fold higher expression on tumor vs highest-expressing relevant normal tissue) is on record as “I (<19% over-expression = I)”. In data set [1] (setting [4]), the “Target coverage, over-expression of source gene, BRCA” value is reported as “I (<19% over-expression = I)”; the “Target coverage, over-expression of source gene, CLL” value is reported as “I (<19% over-expression = I)”; the “Target coverage, over-expression of source gene, CRC” value is listed as “I (<19% over-expression = I)”; the “Target coverage, over-expression of source gene, GB” value is reported as “I (<19% over-expression = I)”. For the same substance, in data set [1] (setting [4]), the “Target coverage, over-expression of source gene, HCC” value is recorded as “I (<19% over-expression = I)”; the “Target coverage, over-expression of source gene, OC” value is on record as “I (<19% over-expression = I)”; the “Target coverage, over-expression of source gene, OSCAR” value was “II (20-49% = II)”; the “Target coverage, over-expression of source gene, PC” value was “I (<19% over-expression = I)”. Further, in data set [1] (setting [4]), the “Target coverage, over-expression of source gene, RCC” value is reported as “I (<19% over-expression = I)”; the “Target coverage, over-expression of source gene, SCLC” value was “I (<19% over-expression = I)”; the “Target coverage, over-expression of source gene, pNSCLC” value is listed as “II (20-49% = II)”. Also, in data set [1], the “Target coverage for source genes of selected peptides, GBC_CCC (N = 10)” value was “I (<19% over-expression = I)”; the “Target coverage for source genes of selected peptides, GC (N = 11)” value was “I (<19% over-expression = I)”; the “Target coverage for source genes of selected peptides, HNSCC (N = 10)” value was “I (<19% over-expression = I)”; the “Target coverage for source genes of selected peptides, MEL (N = 10)” value is recorded as “I (<19% over-expression = I)”. In data set [1], the “Target coverage for source genes of selected peptides, NHL (N = 10)” value is on record as “I (<19% over-expression = I)”; the “Target coverage for source genes of selected peptides, PCA (n = 10)” value is recorded as “I (<19% over-expression = I)”; the “Target coverage for source genes of selected peptides, UBC (N = 10)” value is listed as “I (<19% over-expression = I)”; the “Target coverage for source genes of selected peptides, UTC (N = 10)” value is “I (<19% over-expression = I)”. For the same substance, the “Peptide Presentation on cancer entities” value in data set [2] (Table 9B: selected HLA-A*24 peptides, presentation on additional cancer entities) was “NSCLC”. In data set [3], the “Target coverage, over-expression category of source gene, BLCA (N = 408)” value was “C (>=5% of tumors above the cutoff, but <20%)”; the “Target coverage, over-expression category of source gene, CESC (N = 307)” value is listed as “B (>=20% of tumors above the cutoff, but <50%)”; the “Target coverage, over-expression category of source gene, HNSC (N = 521)” value is “A (>=50% of tumors above the cutoff)”.
For “352: peptide found in ITGA2 (gene looked up) (QYGGDLTNTF; listed as Homo sapiens) [compound 352]”, in data set [1] (setting [5]), the “Target coverage, over-expression of source gene, AML” value was “I (<19% over-expression = I)”; the “Target coverage, over-expression of source gene, BRCA” value is “I (<19% over-expression = I)”; the “Target coverage, over-expression of source gene, CLL” value is listed as “I (<19% over-expression = I)”; the “Target coverage, over-expression of source gene, CRC” value is “I (<19% over-expression = I)”. For the same substance, in data set [1] (setting [5]), the “Target coverage, over-expression of source gene, GB” value is “I (<19% over-expression = I)”; the “Target coverage, over-expression of source gene, HCC” value is given as “I (<19% over-expression = I)”; the “Target coverage, over-expression of source gene, OC” value is reported as “I (<19% over-expression = I)”; the “Target coverage, over-expression of source gene, OSCAR” value is reported as “I (<19% over-expression = I)”. Besides, in data set [1] (setting [5]), the “Target coverage, over-expression of source gene, PC” value is recorded as “II (20-49% = II)”; the “Target coverage, over-expression of source gene, RCC” value was “I (<19% over-expression = I)”; the “Target coverage, over-expression of source gene, SCLC” value was “I (<19% over-expression = I)”; the “Target coverage, over-expression of source gene, pNSCLC” value was “II (20-49% = II)”. For the same substance, in data set [1], the “Target coverage for source genes of selected peptides, GBC_CCC (N = 10)” value was “II (20-49% = II)”; the “Target coverage for source genes of selected peptides, GC (N = 11)” value is “I (<19% over-expression = I)”; the “Target coverage for source genes of selected peptides, HNSCC (N = 10)” value is given as “I (<19% over-expression = I)”; the “Target coverage for source genes of selected peptides, MEL (N = 10)” value is “I (<19% over-expression = I)”. In data set [1], the “Target coverage for source genes of selected peptides, NHL (N = 10)” value is reported as “I (<19% over-expression = I)”; the “Target coverage for source genes of selected peptides, PCA (n = 10)” value is on record as “I (<19% over-expression = I)”; the “Target coverage for source genes of selected peptides, UBC (N = 10)” value is on record as “II (20-49% = II)”; the “Target coverage for source genes of selected peptides, UTC (N = 10)” value is “I (<19% over-expression = I)”. The ENTITIES result in data set [2] is “NSCLC, GB”. Also, in data set [3], the “Target coverage, over-expression category of source gene, BLCA (N = 408)” value is “C (>=5% of tumors above the cutoff, but <20%)”; the “Target coverage, over-expression category of source gene, CESC (N = 307)” value was “C (>=5% of tumors above the cutoff, but <20%)”; the “Target coverage, over-expression category of source gene, CHOL (N = 36)” value is listed as “C (>=5% of tumors above the cutoff, but <20%)”; the “Target coverage, over-expression category of source gene, HNSC (N = 521)” value is on record as “C (>=5% of tumors above the cutoff, but <20%)”.
